Source: publication PMC7341970

Molecular target: HA-BRG1-N (N-terminal fragment of BRG1), in 293T (mouse)
Experiment: co-IP; mapping in HEK293T cells transfected with tagged constructs, harvested after 48 h; whole cell lysate on antibody-coupled Dynabeads Protein G overnight at 4°C, Western blot

binding: binds
B1: full-length ADNP, in 293T (protein, UniProt Q9Z103 1-1108)
chain: MFQLPVNNLGSLRKARKTVKKILSDIGLEYCKEHIEDFKQFEPNDFYLKNTTWEDVGLWDPSLTKNQDYRTKPFCCSACPFSSKFFSAYKSHFRNVHSEDFENRILLNCPYCTFNADKKTLETHIKIFHAPNSSAPSSSLSTFKDKNKNDGLKPKQADNVEQAVYYCKKCTYRDPLYEIVRKHIYREHFQHVAAPYIAKAGEKSLNGAVSLGTNAREECNIHCKRCLFMPKSYEALVQHVIEDHERIGYQVTAMIGHTNVVVPRAKPLMLIAPKPQDKKGMGLPPRISSLASGNVRSLPSQQMVNRLSIPKPNLNSTGVNMMSNVHLQQNNYGVKSVGQSYGVGQSVRLGLGGNAPVSIPQQSQSVKQLLPSGNGRSFGLGAEQRPPAAARYSLQTANTSLPPGQVKSPSVSQSQASRVLGQSSSKPPPAATGPPPSNHCATQKWKICTICNELFPENVYSVHFEKEHKAEKVPAVANYIMKIHNFTSKCLYCNRYLPTDTLLNHMLIHGLSCPYCRSTFNDVEKMAAHMRMVHIDEEMGPKTDSTLSFDLTLQQGSHTNIHLLVTTYNLRDAPAESVAYHAQNNAPVPPKPQPKVQEKADVPVKSSPQAAVPYKKDVGKTLCPLCFSILKGPISDALAHHLRERHQVIQTVHPVEKKLTYKCIHCLGVYTSNMTASTITLHLVHCRGVGKTQNGQDKTNAPSRLNQSPGLAPVKRTYEQMEFPLLKKRKLEEDADSPSCFEEKPEEPVVLALDPKGHEDDSYEARKSFLTKYFNKQPYPTRREIEKLAASLWLWKSDIASHFSNKRKKCVRDCEKYKPGVLLGFNMKELNKVKHEMDFDAEWLFENHDEKDSRVNASKTVDKKHNLGKEDDSFSDSFEHLEEESNGSGSPFDPVFEVEPKIPSDNLEEPVPKVIPEGALESEKLDQKEEEEEEEEEDGSKYETIHLTEEPAKLMHDASDSEVDQDDVVEWKDGASPSESGPGSQQISDFEDNTCEMKPGTWSDESSQSEDARSSKPAAKKKATVQDDTEQLKWKNSSYGKVEGFWSKDQSQWENASENAERLPNPQIEWQNSTIDSEDGEQFDSMTDGVADPMHGSLTGVKLSSQQA

These are yes or no findings as the source states them, for the method shown. In cells and extracts the contact can be indirect. Binding calls can cover weak binding; strength is not graded here.
